Test results published in publication PMC9164164.
For at least one entry, the source does not settle the construct or the ends of the probe.

Tested on: GST-GhTCP4-like (Gossypium hirsutum)
Assay: EMSA
Settings: shift weakened by increasing unlabeled identical probe; Not given; Beyotime Chemiluminescent EMSA Kit, as in Jiao et al. 2020; recombinant protein; protein details: GST (pGEX6p-1); label: 5' biotin

| Sequence | binding result |
| --- | --- |
| AGATAACTACATATCGGTGCCACAGATTACTCAGACAG (double strand) [GhICS1 promoter EMSA probe F1/R1] | binds |
| CAACTAAAGAAGTATGGTGCCACTGATTACTCAAATAA (double strand) [GhICS1 promoter EMSA probe F2/R2] | binds |
